In patent US20260199510A1 (priority 2023, published 2026) one finds step yield and conjugation yield data, which are given here for eleven substances.

This data set is described as follows: peptide synthesis.

Regarding “2-((2S, 5R, 8S, 11S)-8-(4-aminobutyl)-5-benzyl-11-(3-guanidinopropyl)-3, 6, 9, 12, 15-pentaoxo-1, 4, 7, 10, 13-pentaazacyclopentadecan-2-yl)acetic acid”, the step yield (late stage modification step) was 90%.
On the same count and under the same terms, then “4-(((4S, 7S, 10S, 13S)-13-(((benzyloxy) carbonyl)amino)-4, 7, 10-trimethyl-3, 6, 9, 12-tetraoxo-1-phenyl-2-oxa-5, 8, 11-triazaheptadecan-17-yl) carbamoyl)benzoic acid”, with 95% yield.
For the substance “4—((S)-2-((tert-butoxycarbonyl)amino) propanamido)benzyl 2-((2S, 4R)-4-(2-((6S, 9R, 11R)-6-((S)-sec-butyl)-9-isopropyl-2, 3, 3, 8-tetramethyl-4, 7, 13-trioxo-12-oxa-2, 5, 8-triazatetradecan-11-yl) thiazole-4-carboxamido)-2-methyl-5-phenylpentanoyl) hydrazine-1-carboxylate”, the conjugation yield (conjugation step) stood at 29% yield.
As for “(8S, 11S, 14S)-14-((tert-butoxycarbonyl)amino)-1-(((S)-4, 11-diethyl-8-fluoro-4-hydroxy-3, 14-dioxo-3, 4, 12, 14-tetrahydro-1H-pyrano[3′, 4′:6, 7]indolizino[1, 2-b]quinolin-9-yl)oxy)-11-isopropyl-8-methyl-4, 7, 10, 13-tetraoxo-3, 6, 9, 12-tetraazaheptadecan-17-oic acid”, the step yield (late stage modification step) was found to be 104% yield.
“(R)-4-(2-((6S, 9R, 11R)-6-((S)-sec-butyl)-9-isopropyl-2, 3, 3, 8-tetramethyl-4, 7, 13-trioxo-12-oxa-2, 5, 8-triazatetradecan-11-yl) thiazole-4-carboxamido)-5-(4-hydroxy-3-((5S, 8S)-5-isopropyl-8-methyl-3, 6, 9-trioxo-1-phenyl-2-oxa-4, 7, 10-triazadodecan-12-amido)phenyl) pentanoic acid” came in with a step yield (coupling step) of 100% yield.
As for “(R)-5-(3-(2-((S)-2-((S)-2-amino-3-methylbutanamido) propanamido) acetamido)-4-hydroxyphenyl)-4-(2-((6S, 9R, 11R)-6-((S)-sec-butyl)-9-isopropyl-2, 3, 3, 8-tetramethyl-4, 7, 13-trioxo-12-oxa-2, 5, 8-triazatetradecan-11-yl) thiazole-4-carboxamido) pentanoic acid”, the step yield (late stage modification step) worked out at 38% yield.
“(R)-5-(3-((S)-2-((S)-2-(((benzyloxy) carbonyl)amino)-3-methylbutanamido) propanamido)-4-hydroxyphenyl)-4-(2-((6S, 9R, 11R)-6-((S)-sec-butyl)-9-isopropyl-2, 3, 3, 8-tetramethyl-4, 7, 13-trioxo-12-oxa-2, 5, 8-triazatetradecan-11-yl) thiazole-4-carboxamido) pentanoic acid” came in with a step yield (coupling step) of 102% yield.
Substance “N6-(4-(((22S, 26S)-22, 26-bis(tert-butoxycarbonyl)-31, 31-dimethyl-10, 19, 24, 29-tetraoxo-3, 6, 30-trioxa-9, 18, 23, 25-tetraazadotriacontyl) carbamoyl)benzoyl)-L-lysyl-L-alanyl-L-alanyl-L-alanine” had a step yield (late stage modification step) of 94% yield.
As to “benzyl (5S, 8S, 11S, 14S)-5-(4-(4-(tert-butoxycarbonyl)benzamido)butyl)-8, 11, 14-trimethyl-3, 6, 9, 12-tetraoxo-1-phenyl-2-oxa-4, 7, 10, 13-tetraazapentadecan-15-oate”, the step yield (coupling step) is reported as 100% yield.
On the same count and under the same terms, then “benzyl (8S, 1 1S, 14S)-14-((tert-butoxycarbonyl)amino)-1-(((S)-4, 11-diethyl-8-fluoro-4-hydroxy-3, 14-dioxo-3, 4, 12, 14-tetrahydro-1H-pyrano[3′, 4′:6, 7]indolizino[1, 2-b]quinolin-9-yl)oxy)-11-isopropyl-8-methyl-4, 7, 10, 13-tetraoxo-3, 6, 9, 12-tetraazaheptadecan-17-oate”, with 92% yield.
The same measure, in the same setting: then “tert-butyl (S)-5-(((S)-1-(benzyloxy)-3-methyl-1-oxobutan-2-yl)amino)-4-(((benzyloxy) carbonyl)amino)-5-oxopentanoate”, with 68%.
